In patent US20250194597A1, “METHOD FOR INCREASING FLAVONOID CONTENT IN PLANT THROUGH TREATMENT WITH LOW-MOLECULAR-WEIGHT SULFUR COMPOUND” (REPUBLIC OF KOREA (RURAL DEVELOPMENT ADMINISTRATION), priority 2022, published 2025):
Some of these results come from one statement about several compounds together.

Test system: Chinese cabbage cultivar 5923
Test: Flavonoid content of leaves by HPLC after aglyconization, cultivar 5923
Assay type: in vivo
Details: 200 μM alone (no sucrose)
Procedure: 3-(3-Thienyl) acrylic acid (hereinafter referred to as S17) and 3-(2-Thienyl) acrylic acid (hereinafter referred to as 3-(2-S)) dissolved in DMSO at a concentration of 50 μM or 200 μM, respectively, were prepared, and seeds of commercial Chinese cabbage cultivars 5923 and Hwimori were sterilized and then germinated on ½ MS solid medium to prepare 4-day seedlings showing consistent growth.
The leaves of the cultivars 5923 and Whimori prepared in Example 1-1 were collected and crushed, and then extracted with 50% methanol containing 2N HCl at 95° C. for 2 hours, and flavonoid substances present in the form of glycosides in the plants were aglyconized and analyzed by HPLC. After the substances were separated through HPLC using a C18 column, peaks were detected at 350 nm and 520 nm, and flavonoids and anthocyanin non-glycosides in the extract were identified by comparing the retention time and UV spectrum of flavonol non-glycoside standards such as kaempferol, quercetin, myricetin and isorhamnetin, and anthocyanin non-glycoside standards such as pelargonidin, cyanidin and delphinidin, respectively, and the content of the identified flavonoid and anthocyanin substances was estimated based on the concentration of the standards and the area of the peak. As a control group, the cultivar 5923 or Whimori that was not treated with sulfur compounds was used.

SMILES | kaempferol increase compared to the control group
O=C(O)/C=C/c1cccs1 [3-(2-S), 3-(2-Thienyl) acrylic acid] | up to 2.5 times
O=C(O)/C=C/c1ccsc1 [S17, 3-(3-Thienyl) acrylic acid] | up to 2.5 times
